The data set deals with T1, NFAT1 DBD (UniProt Q60591).
T1 sequence (looked up, limits assumed): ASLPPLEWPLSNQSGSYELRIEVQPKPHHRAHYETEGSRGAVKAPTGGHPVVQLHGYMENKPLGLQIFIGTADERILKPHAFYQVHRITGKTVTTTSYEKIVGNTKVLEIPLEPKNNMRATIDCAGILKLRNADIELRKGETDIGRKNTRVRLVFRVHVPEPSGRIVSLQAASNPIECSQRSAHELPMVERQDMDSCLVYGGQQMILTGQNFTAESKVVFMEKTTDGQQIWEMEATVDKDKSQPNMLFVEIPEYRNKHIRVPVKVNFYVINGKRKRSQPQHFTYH
The data set can be described thus: EMSA. The conditions noted are these: 10 nM-1 uM protein, dose-dependent, poly(dI:dC) 0.2 ug/reaction; EMSA: 10 mM HEPES pH 7.0, 125 mM NaCl, 10% glycerol, 0.25 mM DTT, 0.8 mg/mL BSA, 0.2 ug poly(dI:dC) in 20 uL, 20 min at room temperature; 4% native PAGE in 1x TBE; recombinant protein; protein details: Ni-NTA purified (His tag implied); label: 32P 5' end (T4 PNK). (In EMSA bound probe runs differently from free probe, usually more slowly.)

The exact form of at least one protein or probe is not confirmed. Tags and fusion partners may be left off the protein sequences shown.

For “GCCCAAAGAGGAAAATTTGTTTCATACAG (double strand) [IL-2 promoter NFAT site oligonucleotide]”, the binding result is reported as “binds”.

Values taken from article PMC3482241.
